The values that follow come from paper PMC4398458, “Reversible Linkage of Two Distinct Small Molecule Inhibitors of Myc Generates a Dimeric Inhibitor with Improved Potency That Is Active in Myc Over-Expressing Cancer Cell Lines” (PLoS ONE, 2015).

In this series the test system is c-Myc bHLH-LZ + Max. The series is described as follows: EMSA. The following applies: E07+N12 dimeric inhibitor, dose-dependent decrease of Myc:Max complex; EMSA: 100 mM KCl, 1 mM DTT, 1 mM EDTA, 50 mM Tris pH 7.4, 5 mM MgCl2, 0.002% NP40, 2% DMSO, room temperature; 200 ng Myc, 350 ng Max, 100 nM DNA, 10 ul; recombinant protein; label: none (SYBR Green stain). (In EMSA bound probe runs differently from free probe, usually more slowly.)

The exact form of at least one protein or probe is not confirmed. A weaker result is weaker than the reference pair of the same experiment.

Regarding “GATCAGTTGACCACGTGGTCTGGG (double strand) [E-box oligonucleotide]”, the binding result is recorded as “binds more weakly”.
